The supplement of paper PMC10849652
This is one part of the list.

Protein sequences, listed by entry. Tags and fused reporters are not part of them. Lines headed by an entry give the natural chain unless they say otherwise; changes in a name come on top.
UniProt Q96M27: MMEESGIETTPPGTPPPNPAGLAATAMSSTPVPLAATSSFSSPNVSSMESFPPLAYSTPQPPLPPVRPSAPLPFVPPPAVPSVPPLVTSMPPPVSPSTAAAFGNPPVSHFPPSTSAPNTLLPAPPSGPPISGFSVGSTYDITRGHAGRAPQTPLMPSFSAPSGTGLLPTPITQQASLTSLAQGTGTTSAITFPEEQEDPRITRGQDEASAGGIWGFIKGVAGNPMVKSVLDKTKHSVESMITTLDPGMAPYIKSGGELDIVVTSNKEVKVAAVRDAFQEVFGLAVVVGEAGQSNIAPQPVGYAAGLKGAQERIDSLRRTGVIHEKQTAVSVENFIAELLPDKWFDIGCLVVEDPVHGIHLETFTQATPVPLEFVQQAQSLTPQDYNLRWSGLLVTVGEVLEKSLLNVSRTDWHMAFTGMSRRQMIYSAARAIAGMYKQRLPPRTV
UniProt P28074: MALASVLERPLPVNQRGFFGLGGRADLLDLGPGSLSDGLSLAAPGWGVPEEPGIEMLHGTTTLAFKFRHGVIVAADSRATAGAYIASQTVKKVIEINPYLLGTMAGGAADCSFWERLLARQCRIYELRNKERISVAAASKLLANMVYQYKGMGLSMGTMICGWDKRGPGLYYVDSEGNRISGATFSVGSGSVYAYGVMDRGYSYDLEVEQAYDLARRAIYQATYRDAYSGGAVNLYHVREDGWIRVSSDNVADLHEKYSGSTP
UniProt P79522: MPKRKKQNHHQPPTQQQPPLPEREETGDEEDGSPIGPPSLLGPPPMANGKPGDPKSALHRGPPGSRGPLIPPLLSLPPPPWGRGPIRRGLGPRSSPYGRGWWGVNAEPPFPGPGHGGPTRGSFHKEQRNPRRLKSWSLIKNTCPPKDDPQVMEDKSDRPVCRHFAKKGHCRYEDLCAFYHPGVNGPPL
UniProt O14818: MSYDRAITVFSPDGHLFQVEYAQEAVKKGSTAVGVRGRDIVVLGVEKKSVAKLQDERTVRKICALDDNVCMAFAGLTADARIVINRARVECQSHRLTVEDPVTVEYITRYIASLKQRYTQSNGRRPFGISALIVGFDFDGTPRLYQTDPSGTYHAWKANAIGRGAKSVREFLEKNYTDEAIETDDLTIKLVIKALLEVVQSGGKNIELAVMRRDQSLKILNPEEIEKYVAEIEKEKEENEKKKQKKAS
UniProt P43115: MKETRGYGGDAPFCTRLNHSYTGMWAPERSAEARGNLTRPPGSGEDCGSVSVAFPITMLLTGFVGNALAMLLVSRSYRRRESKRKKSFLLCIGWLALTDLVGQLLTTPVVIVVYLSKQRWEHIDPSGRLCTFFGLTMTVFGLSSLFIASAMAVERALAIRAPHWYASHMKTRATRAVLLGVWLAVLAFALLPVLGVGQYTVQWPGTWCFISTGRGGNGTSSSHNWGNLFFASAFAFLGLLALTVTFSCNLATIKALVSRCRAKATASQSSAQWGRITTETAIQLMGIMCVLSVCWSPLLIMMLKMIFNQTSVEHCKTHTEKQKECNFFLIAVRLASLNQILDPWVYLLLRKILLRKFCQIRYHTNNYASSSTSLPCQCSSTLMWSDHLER
UniProt P10586, whole entry, looked up: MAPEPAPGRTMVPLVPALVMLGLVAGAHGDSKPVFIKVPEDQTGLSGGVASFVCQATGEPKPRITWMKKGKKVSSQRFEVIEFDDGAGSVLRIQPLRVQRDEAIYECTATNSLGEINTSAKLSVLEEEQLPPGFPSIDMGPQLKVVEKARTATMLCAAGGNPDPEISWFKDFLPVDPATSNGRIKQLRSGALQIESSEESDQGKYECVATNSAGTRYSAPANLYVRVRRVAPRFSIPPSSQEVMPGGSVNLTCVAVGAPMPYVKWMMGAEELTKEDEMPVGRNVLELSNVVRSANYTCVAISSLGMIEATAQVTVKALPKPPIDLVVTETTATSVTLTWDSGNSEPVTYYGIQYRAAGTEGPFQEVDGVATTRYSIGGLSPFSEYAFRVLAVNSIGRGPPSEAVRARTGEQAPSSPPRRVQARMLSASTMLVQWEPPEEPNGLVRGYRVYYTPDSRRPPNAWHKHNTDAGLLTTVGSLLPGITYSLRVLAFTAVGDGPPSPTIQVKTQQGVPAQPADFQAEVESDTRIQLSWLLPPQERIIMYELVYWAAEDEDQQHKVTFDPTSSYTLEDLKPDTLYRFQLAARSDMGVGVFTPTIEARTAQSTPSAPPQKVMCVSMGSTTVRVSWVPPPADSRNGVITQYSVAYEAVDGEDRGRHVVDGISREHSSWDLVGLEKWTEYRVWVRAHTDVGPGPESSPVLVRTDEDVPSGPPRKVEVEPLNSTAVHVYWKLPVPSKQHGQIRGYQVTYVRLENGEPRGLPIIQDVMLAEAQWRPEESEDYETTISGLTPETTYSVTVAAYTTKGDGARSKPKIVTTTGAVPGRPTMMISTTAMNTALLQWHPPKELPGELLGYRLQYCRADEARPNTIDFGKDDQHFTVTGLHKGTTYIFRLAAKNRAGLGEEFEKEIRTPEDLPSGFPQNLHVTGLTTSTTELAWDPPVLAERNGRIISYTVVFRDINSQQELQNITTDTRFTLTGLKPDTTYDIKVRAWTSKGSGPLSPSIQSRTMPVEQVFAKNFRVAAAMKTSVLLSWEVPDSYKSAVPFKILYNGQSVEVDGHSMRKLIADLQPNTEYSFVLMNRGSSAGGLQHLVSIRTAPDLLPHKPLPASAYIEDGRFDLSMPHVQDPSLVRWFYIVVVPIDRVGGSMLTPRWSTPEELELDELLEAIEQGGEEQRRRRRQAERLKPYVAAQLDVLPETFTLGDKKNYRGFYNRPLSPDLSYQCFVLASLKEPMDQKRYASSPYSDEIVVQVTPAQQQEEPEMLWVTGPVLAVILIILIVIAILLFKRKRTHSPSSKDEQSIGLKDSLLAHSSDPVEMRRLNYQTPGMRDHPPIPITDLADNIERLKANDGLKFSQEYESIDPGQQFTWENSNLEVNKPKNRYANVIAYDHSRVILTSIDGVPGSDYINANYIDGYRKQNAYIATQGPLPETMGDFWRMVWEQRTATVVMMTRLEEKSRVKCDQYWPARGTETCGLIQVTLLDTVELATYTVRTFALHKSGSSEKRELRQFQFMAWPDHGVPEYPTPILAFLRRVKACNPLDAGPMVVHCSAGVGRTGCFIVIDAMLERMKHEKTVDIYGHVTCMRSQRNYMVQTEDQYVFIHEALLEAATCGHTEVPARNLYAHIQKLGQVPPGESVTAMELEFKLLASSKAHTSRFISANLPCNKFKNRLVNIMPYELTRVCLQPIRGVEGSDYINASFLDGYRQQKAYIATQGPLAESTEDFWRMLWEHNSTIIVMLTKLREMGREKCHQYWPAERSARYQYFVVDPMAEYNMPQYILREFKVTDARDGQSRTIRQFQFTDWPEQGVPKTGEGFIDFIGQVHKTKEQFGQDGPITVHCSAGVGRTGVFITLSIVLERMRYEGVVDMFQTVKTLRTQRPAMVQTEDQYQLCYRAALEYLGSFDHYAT
UniProt Q16651: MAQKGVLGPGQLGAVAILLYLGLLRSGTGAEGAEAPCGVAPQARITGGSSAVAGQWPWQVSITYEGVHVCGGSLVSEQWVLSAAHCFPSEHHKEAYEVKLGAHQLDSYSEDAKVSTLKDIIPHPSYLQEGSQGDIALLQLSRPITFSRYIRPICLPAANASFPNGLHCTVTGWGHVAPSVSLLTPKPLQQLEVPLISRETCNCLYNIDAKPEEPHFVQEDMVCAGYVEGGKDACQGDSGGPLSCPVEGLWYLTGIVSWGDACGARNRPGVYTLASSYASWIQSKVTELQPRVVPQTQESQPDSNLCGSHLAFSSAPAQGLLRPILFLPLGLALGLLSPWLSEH
UniProt Q9UI38: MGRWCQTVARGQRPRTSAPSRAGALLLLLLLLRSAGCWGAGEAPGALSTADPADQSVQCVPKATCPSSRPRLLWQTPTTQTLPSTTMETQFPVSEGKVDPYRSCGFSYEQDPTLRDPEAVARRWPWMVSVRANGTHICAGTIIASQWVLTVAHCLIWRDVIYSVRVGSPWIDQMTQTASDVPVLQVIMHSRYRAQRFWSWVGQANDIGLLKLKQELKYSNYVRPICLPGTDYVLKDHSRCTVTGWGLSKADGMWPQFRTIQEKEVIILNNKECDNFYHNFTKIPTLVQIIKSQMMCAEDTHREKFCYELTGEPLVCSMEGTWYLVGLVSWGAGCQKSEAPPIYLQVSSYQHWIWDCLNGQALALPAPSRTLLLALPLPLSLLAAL
UniProt Q9ULL5: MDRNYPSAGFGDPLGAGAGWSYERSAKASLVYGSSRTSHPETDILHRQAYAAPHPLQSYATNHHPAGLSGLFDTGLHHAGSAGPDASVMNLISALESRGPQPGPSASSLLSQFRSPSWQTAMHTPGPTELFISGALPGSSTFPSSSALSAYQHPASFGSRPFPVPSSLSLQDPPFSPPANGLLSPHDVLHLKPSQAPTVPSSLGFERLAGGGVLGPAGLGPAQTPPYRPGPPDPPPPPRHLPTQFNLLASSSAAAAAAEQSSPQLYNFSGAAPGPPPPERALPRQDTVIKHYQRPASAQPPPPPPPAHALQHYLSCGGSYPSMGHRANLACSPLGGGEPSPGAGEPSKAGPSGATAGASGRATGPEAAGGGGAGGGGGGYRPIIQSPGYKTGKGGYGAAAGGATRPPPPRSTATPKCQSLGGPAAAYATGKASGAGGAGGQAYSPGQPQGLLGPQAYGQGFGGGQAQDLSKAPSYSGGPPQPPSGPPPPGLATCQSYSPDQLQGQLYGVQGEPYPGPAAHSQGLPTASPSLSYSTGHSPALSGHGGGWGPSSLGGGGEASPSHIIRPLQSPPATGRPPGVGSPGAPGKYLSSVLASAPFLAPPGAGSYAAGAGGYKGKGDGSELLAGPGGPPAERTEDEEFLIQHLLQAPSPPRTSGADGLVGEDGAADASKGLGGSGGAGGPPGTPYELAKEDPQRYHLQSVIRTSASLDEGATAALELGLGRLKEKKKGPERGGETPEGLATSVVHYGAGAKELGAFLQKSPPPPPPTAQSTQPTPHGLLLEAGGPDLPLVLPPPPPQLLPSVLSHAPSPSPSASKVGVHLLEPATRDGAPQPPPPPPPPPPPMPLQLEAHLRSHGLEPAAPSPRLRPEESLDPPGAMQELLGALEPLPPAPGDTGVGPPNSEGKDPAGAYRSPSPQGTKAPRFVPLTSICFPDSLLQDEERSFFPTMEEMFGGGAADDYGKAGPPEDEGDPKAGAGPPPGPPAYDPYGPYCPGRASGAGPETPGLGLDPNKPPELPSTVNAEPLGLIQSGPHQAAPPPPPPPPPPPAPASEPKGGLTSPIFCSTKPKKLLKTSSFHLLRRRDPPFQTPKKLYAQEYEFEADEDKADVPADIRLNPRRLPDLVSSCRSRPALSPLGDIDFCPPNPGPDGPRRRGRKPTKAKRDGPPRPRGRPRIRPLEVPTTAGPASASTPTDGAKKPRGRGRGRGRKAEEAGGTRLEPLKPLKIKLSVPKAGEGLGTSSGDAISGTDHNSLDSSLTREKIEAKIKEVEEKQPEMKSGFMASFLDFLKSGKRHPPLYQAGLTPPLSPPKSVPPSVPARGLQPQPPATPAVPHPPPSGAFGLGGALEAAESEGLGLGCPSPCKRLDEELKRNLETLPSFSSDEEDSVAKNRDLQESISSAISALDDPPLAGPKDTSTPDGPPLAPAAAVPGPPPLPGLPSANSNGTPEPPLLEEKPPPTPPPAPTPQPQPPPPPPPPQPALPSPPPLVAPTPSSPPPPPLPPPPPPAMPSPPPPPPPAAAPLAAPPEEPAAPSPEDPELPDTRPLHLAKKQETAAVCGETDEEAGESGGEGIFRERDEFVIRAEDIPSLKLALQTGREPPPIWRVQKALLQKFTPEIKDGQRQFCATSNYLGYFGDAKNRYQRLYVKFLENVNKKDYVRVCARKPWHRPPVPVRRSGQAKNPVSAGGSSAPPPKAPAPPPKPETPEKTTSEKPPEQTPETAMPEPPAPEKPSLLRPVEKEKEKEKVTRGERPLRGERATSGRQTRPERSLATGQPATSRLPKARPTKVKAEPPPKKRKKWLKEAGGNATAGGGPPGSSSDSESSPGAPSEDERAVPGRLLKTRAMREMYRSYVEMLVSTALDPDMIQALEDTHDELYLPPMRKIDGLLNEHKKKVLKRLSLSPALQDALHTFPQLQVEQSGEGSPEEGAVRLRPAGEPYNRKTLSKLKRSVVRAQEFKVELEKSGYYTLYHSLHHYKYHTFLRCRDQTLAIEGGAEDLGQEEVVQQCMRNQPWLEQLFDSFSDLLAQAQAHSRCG
UniProt P40306: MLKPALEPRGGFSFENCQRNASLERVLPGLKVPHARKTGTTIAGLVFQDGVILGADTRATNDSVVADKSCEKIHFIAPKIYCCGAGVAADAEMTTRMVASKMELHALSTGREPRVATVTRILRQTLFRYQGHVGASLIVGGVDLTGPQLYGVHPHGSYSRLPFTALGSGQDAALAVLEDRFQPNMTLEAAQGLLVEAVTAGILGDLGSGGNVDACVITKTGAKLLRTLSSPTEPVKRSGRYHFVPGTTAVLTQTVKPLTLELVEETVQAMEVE
UniProt P06454: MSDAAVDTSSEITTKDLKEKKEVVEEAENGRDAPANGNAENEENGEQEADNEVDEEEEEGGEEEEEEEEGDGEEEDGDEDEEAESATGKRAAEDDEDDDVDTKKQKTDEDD

Tests used:
Test in all cases: log2 fold change, soluble protein after heating vs DMSO (PISA); higher = thermal stabilisation; K562 lysate, 10 uM; active = over 0.2 and 3.5 SD of the protein, either way, in both replicates (recomputed)
erlotinib = compound: C#Cc1cccc(Nc2ncnc3cc(OCCOC)c(OCCOC)cc23)c1 [erlotinib]
How it was run: (§1)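 To prepare the extract, K562 pellets were dounce-homogenised in PBS pH 7.4 with 1 mM MgCl2, giving crude material at 1 mg/mL protein. This was treated with 10 μM compound for 30 min, then heated in aliquots for 3 min over 48°C-58°C before pooling and addition of NP-40 to 0.5% at 4°C. Centrifugation at 21,000xg for 90 min left soluble protein in the supernatant, which TMTpro 16plex LC-MS/MS quantified with equalised channel sums. Results are log-two fold changes in thermal stability compared with solvent controls, from duplicates.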

[1] = compound: C/C(=N\NC(=O)C1=CC(=CC=C1)S(=O)(=O)N2CCOCC2)/C3=C(C=CC(=C3)Cl)O
How it was run: as §1

[2] = compound: C1=CC(=CC=C1C2=NC3=C(N2)C=C(C=C3)C(=O)N)OC4=CC=C(C=C4)Cl
How it was run: as §1

[3] = compound: C1=CC2=C(C=CC(=C2)/C=C\3/C(=O)NC(=NCC4=CC=CS4)S3)N=C1
How it was run: as §1

[4] = compound: C1=CC2=NC=CN=C2C=C1/C=C/3\C(=O)NC(=O)S3
How it was run: as §1

[5] = compound: C1=CC=C(C=C1)C2=NC(=C(N2)C3=CC=NC=C3)C4=CC(=C(C=C4)Cl)O
How it was run: as §1

[6] = compound: C1=CC=C2C(=C1)C3=NNC4=CC=CC(=C43)C2=O
How it was run: as §1

[7] = compound: C1CCN(C1)C(=O)NC2=CC=CC(=C2)NC3=NC=C(C(=N3)NCCC4=CN=CN4)Br
How it was run: as §1

[8] = compound: C1CN(CCC1(CC2=CC=C(C=C2)Cl)N)C3=NC=NC4=C3C=CN4
How it was run: as §1

IRAK-1-4 Inhibitor I = compound: C1COCCN1CCN2C3=CC=CC=C3N=C2NC(=O)C4=CC(=CC=C4)[N+](=O)[O-] [IRAK-1-4 Inhibitor I]
How it was run: as §1

ibrutinib = compound: C=CC(=O)N1CCC[C@@H](n2nc(-c3ccc(Oc4ccccc4)cc3)c3c(N)ncnc32)C1 [ibrutinib]
How it was run: as §1

[9] = compound: CC(=O)c1cnc2ccc(-c3cc(Cl)c(O)c(Cl)c3)nc2c1N[C@H]1CC[C@H](CN(C)C)CC1
How it was run: as §1

ralimetinib = compound: CC(C)(C)Cn1c(N)nc2ccc(-c3[nH]c(C(C)(C)C)nc3-c3ccc(F)cc3)nc21 [ralimetinib]
How it was run: as §1

[10] = compound: CC(C)(O)CC(=O)NCCn1ccc2ncnc(Nc3ccc(Oc4cccc(C(F)(F)F)c4)c(Cl)c3)c21
How it was run: as §1

[11] = compound: CC(C)C1=C2N=C(C=C(N2N=C1)NCC3=CC=CC=C3)NCCCCCCN
How it was run: as §1

[12] = compound: CC1=C(C(CC(=O)N1)C2=CC=C(C=C2)C(F)(F)F)C(=O)NC3=C(C=C4C(=C3)C=NN4)F
How it was run: as §1

[13] = compound: CC1=C(C2=C(C=C1)C(=O)C3=CC=CC=C3N2CCCN)C
How it was run: as §1

[14] = compound: CC1=C(C=C(C=C1)NC(=O)C2=CC(=CC=C2)C(C)(C)C#N)NC3=CC4=C(C=C3)N=CN(C4=O)C
How it was run: as §1

[15] = compound: CC1=C(C=C(C=C1)NC(=O)C2=CC(=CC=C2)N(C)C)NC(=O)C3=CC=C(C=C3)O
How it was run: as §1

[16] = compound: CC1=CC=C(C=C1)SC2=C3C=C(SC3=CN=C2)C(=O)N
How it was run: as §1

Measured: log2 fold change

PRRC1 (UniProt Q96M27)
inactive: erlotinib -0.028 | [1] -0.038 | [2] 0.043 | [3] -0.008 | [4] -0.017 | [5] -0.007 | [6] -0.006 | [7] -0.013 | [8] -0.013 | IRAK-1-4 Inhibitor I 0.023 | ibrutinib 0.03 | [9] -0.015 | ralimetinib -0.028 | [10] -0.03 | [11] 0.026 | [12] 0.014 | [13] -0.023 | [14] -0.016 | [15] 0.018 | [16] -0.019

PSMB5 (UniProt P28074)
inactive: erlotinib 0.03 | [1] 0.024 | [2] 0.019 | [3] 0.019 | [4] 0.03 | [5] 0.022 | [6] 0.028 | [7] 0.023 | [8] 0.028 | IRAK-1-4 Inhibitor I 0.028 | ibrutinib -0.004 | [9] 0.007 | ralimetinib -0.002 | [10] -0.007 | [11] -0.015 | [12] -0.005 | [13] 0.018 | [14] 0.014 | [15] -0.033 | [16] 0

PWP1 (UniProt Q13610)
inactive: erlotinib -0.02 | [1] -0.025 | [2] 0.045 | [3] 0.057 | [4] 0.007 | [5] 0 | [6] 0.031 | [7] 0.008 | [8] -0.032 | IRAK-1-4 Inhibitor I 0.005 | ibrutinib 0.022 | [9] -0.017 | ralimetinib 0.012 | [10] -0.011 | [11] -0.02 | [12] -0.053 | [13] -0.025 | [14] -0.009 | [15] 0.032 | [16] -0.001

PTBP2 isoform 2 (UniProt Q9UKA9)
inactive: erlotinib 0.032 | [1] 0.188 | [2] 0.094 | [3] -0.037 | [4] -0.145 | [5] -0.004 | [6] 0.018 | [7] -0.193 | [8] 0.151 | IRAK-1-4 Inhibitor I 0.016 | ibrutinib 0.056 | [9] -0.092 | ralimetinib 0.012 | [10] 0.011 | [11] 0.018 | [12] -0.025 | [13] -0.1 | [14] 0.037 | [15] 0.032 | [16] 0.019

PSMA7 (UniProt H0Y586)
inactive: erlotinib -0.289 | [2] 0.048 | [4] 0.102 | ibrutinib 0.095 | [9] -0.015 | [11] -0.512 | [12] -0.199 | [14] 0.124 | [16] 0.125

PSMC5 (UniProt J3KRP2)
inactive: [9] -0.018 | [12] 0.05 | [16] -0.036

PSAP isoform 2 (UniProt P07602)
inactive: erlotinib -0.04 | [2] -0.217 | [11] -0.166

PRRC2B (UniProt H0Y412)
inactive: erlotinib 0.006 | [2] 0.256 | [5] -0.227 | IRAK-1-4 Inhibitor I 0.003 | ralimetinib 0.096 | [10] -0.033 | [11] -0.086 | [15] 0.051

PTPN14 (UniProt Q15678)
inactive: [7] 0.089 | [8] 0.223 | [14] 0.16

PRR16 (UniProt Q569H4)
inactive: [14] 0.05

Reprinted from the listing (2 entries):
PRRC2B (UniProt H0Y412)
inactive: erlotinib 0.006 | [2] 0.256 | [5] -0.227 | IRAK-1-4 Inhibitor I 0.003 | ralimetinib 0.096 | [10] -0.033 | [11] -0.086 | [15] 0.051

PTPN14 (UniProt Q15678)
inactive: [7] 0.089 | [8] 0.223 | [14] 0.16

Continued:

PRR3 (UniProt P79522)
inactive: [1] 0.115 | [3] -0.004 | [6] -0.088 | [9] 0.146 | [12] 0.022 | [14] -0.02 | [16] -0.096

PTPA (UniProt A6PVN8)
inactive: [7] -0.161 | [8] -0.016

PSMA7 isoform 2 (UniProt O14818)
inactive: [7] -0.04 | [8] -0.068 | [12] -0.069 | [13] 0.172 | [14] -0.154

PTPA (UniProt Q5T948)
inactive: [1] -0.023 | [3] -0.008 | [5] 0.063 | [6] 0.016 | IRAK-1-4 Inhibitor I -0.014 | [9] 0.028 | ralimetinib 0.12 | [10] -0.018 | [15] -0.278 | [16] 0.07

PSMD1, A0A087WW66
inactive: [4] -0.158 | ibrutinib 0.2 | [9] 0.062 | [16] -0.025

PRSS2 (UniProt P07478)
inactive: [9] 0.157 | [13] -0.104 | [16] 0.222

PTGES3 isoform 4 (UniProt Q15185)
inactive: [4] 0.113 | [5] -0.128 | IRAK-1-4 Inhibitor I -0.113 | ibrutinib 0.118 | ralimetinib -0.279 | [10] -0.089 | [15] 0.292

PSTK (UniProt H7BYY4)
inactive: [13] -0.213

PSMC3 (UniProt E9PLG2)
inactive: [1] -0.043 | [3] 0.001 | [6] 0.091

PTGER3 isoform 2 (UniProt P43115)
inactive: [9] -0.026 | [14] -0.044 | [16] 0.017

PTPRB isoform 3 (UniProt P23467)
inactive: [4] -0.106 | ibrutinib 0.129 | [9] -0.043 | [12] -0.095 | [13] 0.011 | [16] 0.194

PRRG1 (UniProt O14668)
inactive: [5] -0.006 | IRAK-1-4 Inhibitor I 0.06 | ralimetinib 0.081 | [10] 0.072 | [15] -0.033

PTPRF (UniProt P10586)
inactive: [1] -0.4 | [3] -0.069 | [6] 0.064 | [14] 0.224

PRSS8 (UniProt Q16651)
inactive: erlotinib -0.013 | [2] -0.021 | [5] -0.057 | IRAK-1-4 Inhibitor I 0.131 | ralimetinib 0.008 | [10] -0.11 | [11] 0 | [13] -0.02 | [14] 0.11 | [15] -0.198

PWWP2B (UniProt Q6NUJ5)
inactive: [9] -0.05 | [13] -0.006 | [16] 0.1

PSME3 (UniProt K7EMD0)
inactive: [9] 0 | [12] -0.064 | [16] 0.033

PRSS50 (UniProt Q9UI38)
inactive: [4] 0.023 | [7] 0.059 | [8] -0.037 | ibrutinib 0.03 | [9] 0 | [13] -0.036 | [16] -0.053

PRR12 (UniProt Q9ULL5)
inactive: [4] -0.053 | [5] 0.134 | IRAK-1-4 Inhibitor I 0.203 | ibrutinib 0.005 | ralimetinib 0.192 | [10] -0.018 | [14] 0.127 | [15] -0.017

PSMB10 (UniProt P40306)
inactive: [1] 0.007 | [3] -0.013 | [4] -0.058 | [5] 0.012 | [6] 0.08 | [7] -0.032 | [8] -0.008 | IRAK-1-4 Inhibitor I 0.004 | ibrutinib 0.09 | [9] 0.017 | ralimetinib -0.104 | [10] 0.057 | [13] 0 | [14] 0.032 | [15] 0.024 | [16] 0.069

PSMF1 (UniProt Q5QPM7)
inactive: [1] 0.067 | [3] 0.026 | [6] -0.278 | [7] 0.046 | [8] 0.026 | [14] 0.066

PTMA isoform 2 (UniProt P06454)
inactive: [4] 0.015 | ibrutinib -0.053

PTOV1 (UniProt Q86YD1)
inactive: [1] 0.479 | [3] -0.083 | [6] -0.139 | [13] -0.14 | [14] -0.167

PTPA (UniProt Q5T949)
inactive: [9] 0.09 | [12] -0.001 | [16] -0.132

PSEN2 (UniProt P49810)
inactive: [4] 0.014 | [5] 0.061 | [7] -0.049 | [8] 0.058 | IRAK-1-4 Inhibitor I -0.026 | ibrutinib -0.018 | ralimetinib 0.059 | [10] -0.028 | [12] 0.016 | [13] 0.026 | [14] -0.041 | [15] -0.006

PTBP1, A0A0U1RRM4
inactive: [9] 0.19 | [16] -0.059

PSMD6 (UniProt Q15008)
inactive: [4] 0.215 | ibrutinib -0.244 | [9] -0.005 | [12] -0.086 | [14] 0.212 | [16] -0.095

PTMS (UniProt F5GXR3)
inactive: [1] -0.137 | [3] -0.096 | [6] 0

PTPN11, A0A0U1RRI0
inactive: [9] -0.041 | [16] 0.111

PTK2 isoform 2 (UniProt Q05397)
inactive: erlotinib 0.002 | [2] 0.006 | [4] -0.114 | [7] 0.193 | [8] -0.016 | ibrutinib 0.173 | [9] -0.047 | [11] -0.002 | [13] -0.138 | [16] -0.053
